In this experiment the test system is patient suffering from symphysiolysis. The settings on record: after 30 minutes; 5 ml lidocaine HCl 1%, subcutaneous, both sides.

Structures can show the parent of a compound that is named as a salt.

Consider `CCN(CC)CC(=O)Nc1c(C)cccc1C` [lidocaine HCl], for which the stability in walking result was “increased”.

For the origin of these results see US20220023279A1, “COMPOSITIONS FOR TREATMENT OF SYMPHYSIOLYSIS” (priority 2018, published 2022).
